Laboratory results taken from PubChem BioAssay AID2685 (National Center for Advancing Translational Sciences (NCATS), 2010).
The list shows a part of the results. These are further read-outs of the screen, such as a control signal, another cell line or another target. No call is given for them. Compounds called inactive in the main read-out are mostly missing here. Words in brackets tell the shape of the fitted curve; partial curves, single points and poor fits give uncertain potencies.

Experiment: qHTS Assay for Lipid Storage Modulators in Drosophila S3 Cells;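 for cell number change: cells counted by Cell Tracker Red CMTPX staining in the red channel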
Conditions: BODIPY lipid droplet fluorescence, 18-24 h; for cell number change: measured here: cell count max response, cells fed with added oleic acid
Outline: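 Drosophila S3 cells got compounds at several concentrations plus oleic acid (400 uM solution). Laser-scanning cytometry with 488 nm excitation read lipid droplets at 500-530 nm and cells at 575-640 nm. Percent activity was relative to 20 uM Triacsin C.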

[1] = measured here: lipid fluorescence (Fed channel) AC50, cells fed with added oleic acid
[2] = measured here: cell number channel AC50, cells fed with added oleic acid

| SMILES | cell number change [%] | AC50 [1] | AC50 [2] |
| --- | --- | --- | --- |
| O=C(Nc1ccccc1C(=O)NCCN1CCOCC1)c1ccc(Cl)cc1Cl | 2.47 | 2.06 µM [falling, single point] |  |
| CC(OC(=O)CCCN=C1NS(=O)(=O)c2ccccc21)C(=O)Nc1ccccc1F (stereo not given) |  |  | 0.116 µM [rising, full curve, poor fit] |
| O=C(Nc1cccc(Cl)c1)c1ccc(F)c(S(=O)(=O)NCc2cccs2)c1 | -15.8 |  |  |
| N#CN=C1CCCCCN1CC(N)=O |  | 2.31 µM [falling, partial curve, poor fit] |  |
| COc1ccc(Cl)cc1NC(=O)Cn1c(NCCO)nc2ccccc21 |  | 29.1 µM [rising, single point] |  |
| COc1ccc(C2CC(c3cccs3)=NN2C(=O)CSc2nc3ccccc3o2)cc1 (stereo not given) |  | 14.6 µM [falling, partial curve] |  |
| Cc1ccccc1C(=O)Nc1ccc(N(C)C)c2ccccc12 | 2.55 |  |  |
| Cn1cccc1Cc1nnc(SCC(=O)Nc2ccc3c(c2)OCO3)n1CCc1ccccc1 | -1.99 | 0.731 µM [rising, partial curve] |  |
| CCCc1nc2oc3c(NCCN4CCOCC4)ncnc3c2c2c1CCCC2 | -12.7 |  |  |
| O=C(O)C1CCC(N2C(=O)C3CCCCC3C2=O)CC1 (stereo not given) | -154 | 6.51 µM [falling, single point] | 29.1 µM [falling, single point] |
| COc1cccc(NC(=S)N(CCCN2CCOCC2)Cc2cn(C)c3ccccc23)c1 | -8.99 | 6.51 µM [rising, single point] | 6.51 µM [rising, single point] |
| O=C1CC(c2ccccc2)CN1C(=O)c1cccc([N+](=O)[O-])c1 (stereo not given) | 13.6 | 0.461 µM [falling, single point] |  |
| CCOC(=O)Cc1csc(NC(=O)CSc2nc(N)c3c(C)c(C)sc3n2)n1 |  | 0.58 µM [rising, single point] |  |
| CCOc1ccc(Nc2ncnc3ccc([N+](=O)[O-])cc23)cc1 | 38.5 |  | 29.1 µM [rising, single point] |
| CCOC(=O)c1[nH]c2ccccc2c1NC(=O)CCN1CCN(C(=O)OCC)CC1 | 25.4 | 18.4 µM [rising, single point] |  |
| COc1cc(NC(=O)COc2cc(O)c3c(c2)OC(C)(C)CC3=O)cc(OC)c1OC | -27.5 | 29.1 µM [falling, single point] |  |
| Cc1ccc(S(=O)(=O)Nc2c(C)[nH]c(=O)[nH]c2=O)cc1C | -24.9 | 29.1 µM [falling, single point] |  |
| COc1ccccc1NC(=O)CN1C(=O)NC2(CCCc3ccccc32)C1=O (stereo not given) | 4.76 | 2.06 µM [falling, partial curve, poor fit] |  |
